# Screening data, single-dose tests

Sequences of proteins named here, by UniProt entry; tags and fusion partners are left off. Residues count along the entry.
UniProt Q8IDJ8, 1-583: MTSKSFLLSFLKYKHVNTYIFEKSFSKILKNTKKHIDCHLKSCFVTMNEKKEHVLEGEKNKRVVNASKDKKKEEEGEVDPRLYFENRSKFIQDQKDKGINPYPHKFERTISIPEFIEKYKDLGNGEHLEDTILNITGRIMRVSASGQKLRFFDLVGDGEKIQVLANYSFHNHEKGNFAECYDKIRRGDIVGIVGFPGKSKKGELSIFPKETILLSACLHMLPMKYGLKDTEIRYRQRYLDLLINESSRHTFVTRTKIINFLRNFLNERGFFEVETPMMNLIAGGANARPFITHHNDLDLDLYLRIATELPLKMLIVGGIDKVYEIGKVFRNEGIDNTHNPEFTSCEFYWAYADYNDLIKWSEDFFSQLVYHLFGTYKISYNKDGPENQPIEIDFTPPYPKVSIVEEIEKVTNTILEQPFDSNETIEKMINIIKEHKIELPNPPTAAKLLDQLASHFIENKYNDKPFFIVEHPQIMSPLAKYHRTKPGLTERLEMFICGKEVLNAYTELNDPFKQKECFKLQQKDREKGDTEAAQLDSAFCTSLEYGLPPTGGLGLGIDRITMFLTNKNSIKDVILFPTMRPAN
UniProt P9WFT3, whole entry: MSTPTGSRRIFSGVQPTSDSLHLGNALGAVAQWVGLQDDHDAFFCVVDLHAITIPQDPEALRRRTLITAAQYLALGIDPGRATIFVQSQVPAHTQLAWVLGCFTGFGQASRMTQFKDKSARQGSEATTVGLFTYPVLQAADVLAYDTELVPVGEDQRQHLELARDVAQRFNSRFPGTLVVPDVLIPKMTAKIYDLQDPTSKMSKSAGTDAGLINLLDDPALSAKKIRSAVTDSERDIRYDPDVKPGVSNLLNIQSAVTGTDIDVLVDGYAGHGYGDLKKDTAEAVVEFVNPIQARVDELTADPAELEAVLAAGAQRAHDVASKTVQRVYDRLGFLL

Measurements from “University of Dundee, Small-Polar-MMV Screening Library” (2021), ChEMBL document CHEMBL3988442.

PfKRS1: 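Lysine-tRNA ligase, Plasmodium falciparum 3D7 (UniProt Q8IDJ8). Enzyme assay of the cytosolic lysyl-tRNA synthetase in 384-well plates, read by luminescence. Concentration: 30 µM. Higher reads as stronger inhibition, judged from the few compounds that gave an IC50. Size under these conditions: about 69,000 compounds, about 49 of them at 50% or above in at least one test.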
MtTrpRS: 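Enzyme assay of tryptophanyl-tRNA synthetase; the read-out is not stated. Target: Tryptophan-tRNA ligase, Mycobacterium tuberculosis (UniProt P9WFT3). Compounds at 10 µM. Higher most likely means stronger inhibition; the record gives no direction and few retests gave an IC50. About 65,000 compounds were tested under these conditions; 0.098% (about 64) showed 50% or more at least once.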

Results are given as percent effect.
How 0% and 100% were set is not recorded. Most values in the screen are low, and negative values occur.
Compounds were drawn at random from those tested, without regard to their results.

With COCCC(Cc1cccc(Br)c1)C(=O)N(C)C (stereo not shown) the screen gave PfKRS1: 0.7736%; MtTrpRS: -0.9238%.
With COCc1nc(CNC(=O)c2cc(C)c(C)[nH]c2=O)no1 the screen gave PfKRS1: 0.9343%; MtTrpRS: -2.021%.
With Cc1nc(C)n(CC2CN(c3ncccc3C#N)CCO2)n1 (stereo not shown) the screen gave PfKRS1: -0.439%; MtTrpRS: -3.888%.
With Cc1cccc(C)c1OCCNC(=O)NC(C)c1nncn1C (stereo not shown) the screen gave PfKRS1: 3.05%; MtTrpRS: 2.737%.
With CC(C)Nc1ccc2c(c1)C1(CCOCC1)C(=O)N2c1ccsc1 the screen gave PfKRS1: 2.098%; MtTrpRS: -0.7757%.
With O=C(NCC1(N2CCOCC2)CCSC1)Nc1ccccn1 (stereo not shown) the screen gave PfKRS1: 4.457%; MtTrpRS: -0.08818%.
With Cn1ccc(C(=O)N2CCN(CCc3ccccc3)CC2)cc1=O the screen gave PfKRS1: 1.863%; MtTrpRS: 3.411%.
With CCO[C@H]1CO[C@@]2(CCCN(C(=O)c3ccc(OC)c(F)c3)C2)C1 the screen gave PfKRS1: -1.38%; MtTrpRS: -3.267%.
With O=C(NCC1CC[C@@]2(CNCCOC2)O1)c1cccnc1 (stereo partly shown) the screen gave PfKRS1: 4.949%; MtTrpRS: -0.4933%.
With CC(C)CNC(=O)c1nc(COc2ccc3c(c2)OCO3)no1 the screen gave PfKRS1: -2.643%; MtTrpRS: 2.177%.
With O=C(O)C1(Oc2ccc3ccccc3c2)CCN(c2ncccn2)CC1 the screen gave PfKRS1: -0.8702%; MtTrpRS: 9.348%.
With O=C(Cc1ccc(O)c(F)c1)N1CCN(CC2CC2)[C@@H]2CS(=O)(=O)C[C@@H]21 the screen gave PfKRS1: -4.352%; MtTrpRS: 6.556%.
With CCN(CC)C[C@H]1CN2CC[C@H]1C[C@@H]2CNC(=O)Nc1ccsc1 the screen gave PfKRS1: 7.791%; MtTrpRS: -0.6777%.
With CNC(=O)C1CC2(CCN(C(=O)c3csnn3)CC2)c2ccccc21 (stereo not shown) the screen gave PfKRS1: -0.418%; MtTrpRS: -5.973%.
With Cc1cc(C(=O)N[C@H]2CC[C@@]3(CCC(=O)N3CC3CC3)CC2)no1 the screen gave PfKRS1: 0.9177%; MtTrpRS: -2.183%.
With CCn1c(CN2CCC(O)(C(=O)OC)CC2)nc2c(F)cccc21 the screen gave PfKRS1: 4.62%; MtTrpRS: 3.616%.
With CCN(CC1CCOC1)S(=O)(=O)Cc1ccccc1Cl (stereo not shown) the screen gave PfKRS1: 2.001%; MtTrpRS: -3.757%.
With Cc1nc(N(C)C)nc(N2CCC3(CC2)CNC(=O)O3)c1C the screen gave PfKRS1: 0.2112%; MtTrpRS: 1.161%.
With CC[C@H](N)C(=O)Nc1nn(CC(F)(F)F)c2cc(OC(C)C)ccc12 the screen gave PfKRS1: 2.509%; MtTrpRS: -0.4944%.
With CC1(Cc2ccc3c(c2)OCO3)CCCN(S(=O)(=O)N2CCOCC2)C1 (stereo not shown) the screen gave PfKRS1: 0.8682%; MtTrpRS: -3.069%.
With CC(C)c1nn(C)c(Cl)c1CNCCn1cccn1 the screen gave PfKRS1: 0.1144%; MtTrpRS: 2.245%.
With Cc1cc(C)n(C2CN(CCc3ccncc3)C2)n1 the screen gave PfKRS1: -5.326%; MtTrpRS: 1.336%.
With CC1(C)CC(N(Cc2ccccc2)Cc2c[nH]cn2)CC(C)(C)N1 the screen gave PfKRS1: 0.9254%; MtTrpRS: 0.651%.
With CC(=O)N1CCCCCC1C1CCN(Cc2nnc(C(C)(C)C)o2)CC1 (stereo not shown) the screen gave PfKRS1: 5.391%; MtTrpRS: -1.699%.
With CNc1nc(CNC(=O)Nc2cccc(COCCOC(C)C)c2)cs1 the screen gave PfKRS1: 10.8%; MtTrpRS: 2.291%.
With CCN1CCN2CCCN(S(=O)(=O)c3ccc(S(C)(=O)=O)cc3)C2C1=O (stereo not shown) the screen gave PfKRS1: 0.1584%; MtTrpRS: -1.568%.
With COCC1CN(S(=O)(=O)N(C)C)Cc2ncn(CC3CC3)c21 (stereo not shown) the screen gave PfKRS1: 4.491%; MtTrpRS: -3.539%.
With O=C(NCc1c(F)cccc1Cl)c1cc(CN2CCCC(O)C2)on1 (stereo not shown) the screen gave PfKRS1: -3.037%; MtTrpRS: 1.079%.
With Cc1ccc(F)cc1-n1c(COC(C)C)n[nH]c1=O the screen gave PfKRS1: 8.372%; MtTrpRS: -2.07%.
With COc1cc(CNc2cnn(C)c2)cc2c1OCCO2 the screen gave PfKRS1: 0.1819%; MtTrpRS: 5.818%.
With Cn1cc(CN2CCC3(CC2)CCN(C(=O)c2cscn2)C3)cn1 the screen gave PfKRS1: 1.216%; MtTrpRS: -1.201%.
With COc1ncccc1CN1Cc2nccn2CC(CN2CCCC2)C1 (stereo not shown) the screen gave PfKRS1: 1.985%.
With COC(=O)CCN(C)Cc1cc(Br)cs1 the screen gave PfKRS1: -2.472%; MtTrpRS: -3.118%.
With CN(CC(N)=O)Cc1ccc(F)cc1Cl the screen gave PfKRS1: 2.593%; MtTrpRS: -2.308%.
With CCc1ncc(C(=O)NCCNc2ccncc2)s1 the screen gave PfKRS1: 2.313%; MtTrpRS: -0.4405%.
With CN(CC1CCN(c2ccccc2)C1)c1ccc(Cn2ccnc2)cn1 (stereo not shown) the screen gave PfKRS1: 5.707%; MtTrpRS: -1.614%.
With OCC1N(Cc2ccco2)[C@H]2CC[C@]1(O)CC2 (stereo partly shown) the screen gave PfKRS1: 4.658%.
With CCOc1cc(CNCCCn2ccnc2)cc(Cl)c1OC the screen gave PfKRS1: 0.1132%; MtTrpRS: 8.744%.
With CSc1nc2ccsc2c(=O)n1CC(=O)N1CCCCC1C (stereo not shown) the screen gave PfKRS1: 3.818%; MtTrpRS: 3.805%.
With O=C(CCN1CCCN(c2nccs2)CC1)Nc1ccccc1 the screen gave PfKRS1: 2.141%; MtTrpRS: -3.97%.
With CC(Cn1cccn1)NCc1ccc(OCc2ccncc2)cc1 (stereo not shown) the screen gave PfKRS1: 1.231%; MtTrpRS: 0.000006%.
With CCNc1c(NC(=O)NC(C)C)c(=O)oc2ccccc12 the screen gave PfKRS1: -0.6493%; MtTrpRS: -5.556%.
With O=C(C1CCOC1)N1CCC(OCc2ccccc2)CC1 (stereo not shown) the screen gave PfKRS1: -3.563%; MtTrpRS: 4.072%.
With CCCn1c(C)c(CC(=O)NCCOC)c2c1CC(C)(C)CC2=O the screen gave PfKRS1: 3.399%; MtTrpRS: 4.454%.
With CNC(=O)NC(=O)CN1CCN(CC(F)(F)F)CC1(C)C the screen gave PfKRS1: 4.561%; MtTrpRS: 2.099%.
With COc1cccc(/C=C/CCN2CCC(C(=O)N3CCCC3)CC2)c1 the screen gave PfKRS1: 0.2401%; MtTrpRS: 2.816%.

Some entries from above, unchanged:

* CSc1nc2ccsc2c(=O)n1CC(=O)N1CCCCC1C (stereo not shown) | PfKRS1: 3.818%; MtTrpRS: 3.805%
* O=C(NCc1c(F)cccc1Cl)c1cc(CN2CCCC(O)C2)on1 (stereo not shown) | PfKRS1: -3.037%; MtTrpRS: 1.079%
* CC(Cn1cccn1)NCc1ccc(OCc2ccncc2)cc1 (stereo not shown) | PfKRS1: 1.231%; MtTrpRS: 0.000006%
* CNC(=O)C1CC2(CCN(C(=O)c3csnn3)CC2)c2ccccc21 (stereo not shown) | PfKRS1: -0.418%; MtTrpRS: -5.973%
* CC1(Cc2ccc3c(c2)OCO3)CCCN(S(=O)(=O)N2CCOCC2)C1 (stereo not shown) | PfKRS1: 0.8682%; MtTrpRS: -3.069%